PubChem BioAssay AID1224830 | NIAID – 2016
Here is a random part of about 18,000 deposited reagents. Of all reagents, about 2,900 (16%) got an active call. 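Calls are made per well; low scores hint the gene aids the LPS response, high scores that it dampens it.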 Unmarked entries are inactive. Repeated entries: four replicate wells of each siRNA pool.

Purpose: 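Host factors that control LPS-induced TNF expression in human macrophages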 (primary screen)
Cell system: human THP-1 monocytic leukaemia cells, TNF dual-luciferase reporter clone, PMA-differentiated to macrophage-like cells
Reagents: siRNA pool against human genes, 50 nM
Time to read-out: LPS for 4 h, given about 3 days after siRNA transfection
Treatment: bacterial LPS (TLR4 ligand), 10 ng/ml
Read-out: 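TNF firefly reporter luminescence divided by renilla, normalised to the plate median, then turned into a robust z-score for each replicate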
Reading the numbers: TNF reporter robust z-score: higher = stronger TNF reporter response to LPS
Hit rule: 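Each well counts as active if its z-score is over 2.8 or under -1.5; controls are left without a call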

IGSF11
- TNF reporter robust z-score: 1.69

IGSF11
- TNF reporter robust z-score: 1.46

IGSF11
- TNF reporter robust z-score: 1.49

IGSF11
- TNF reporter robust z-score: 0.26

NSUN5P1
- TNF reporter robust z-score: -0.94

NSUN5P1
- TNF reporter robust z-score: -0.93

RIMOC1
- TNF reporter robust z-score: -1

RIMOC1
- TNF reporter robust z-score: -0.25

RIMOC1
- TNF reporter robust z-score: -0.54

RIMOC1
- TNF reporter robust z-score: -0.23

TRIM5
- TNF reporter robust z-score: 1.03

TRIM5
- TNF reporter robust z-score: 1.02

TRIM5
- TNF reporter robust z-score: 0.49

TRIM5
- TNF reporter robust z-score: 0.59

PITX3
- TNF reporter robust z-score: -1.2

PITX3
- TNF reporter robust z-score: -1.19

PITX3
- TNF reporter robust z-score: -1.04

PITX3
- TNF reporter robust z-score: -1.41

4 entries already listed, sorted by “TNF reporter robust z-score”, descending:
TRIM5
- TNF reporter robust z-score: 1.03

TRIM5
- TNF reporter robust z-score: 1.02

TRIM5
- TNF reporter robust z-score: 0.59

TRIM5
- TNF reporter robust z-score: 0.49

The results go on.
SDSL
- TNF reporter robust z-score: -1.8 (active)

SDSL
- TNF reporter robust z-score: -0.66

SDSL
- TNF reporter robust z-score: -1.51 (active)

SDSL
- TNF reporter robust z-score: -0.62

KRTAP1-1
- TNF reporter robust z-score: -0.32

KRTAP1-1
- TNF reporter robust z-score: 0.69

KRTAP1-1
- TNF reporter robust z-score: -0.05

KRTAP1-1
- TNF reporter robust z-score: 1.14

KAT7
- TNF reporter robust z-score: -1.23

KAT7
- TNF reporter robust z-score: -1.6 (active)

KAT7
- TNF reporter robust z-score: -1.78 (active)

DAGLB
- TNF reporter robust z-score: -0.84

DAGLB
- TNF reporter robust z-score: -0.38

DAGLB
- TNF reporter robust z-score: -0.93

DAGLB
- TNF reporter robust z-score: 0.32

USO1
- TNF reporter robust z-score: 0

USO1
- TNF reporter robust z-score: -0.53

USO1
- TNF reporter robust z-score: -0.91

USO1
- TNF reporter robust z-score: -0.46

ZNF709
- TNF reporter robust z-score: -0.46

ZNF709
- TNF reporter robust z-score: -0.55

ZNF709
- TNF reporter robust z-score: 1.14

ZNF709
- TNF reporter robust z-score: 1.22

USP3
- TNF reporter robust z-score: 0.52

USP3
- TNF reporter robust z-score: 0.17

USP3
- TNF reporter robust z-score: -0.25

USP3
- TNF reporter robust z-score: 3.73 (active)

BTF3
- TNF reporter robust z-score: 0.39

BTF3
- TNF reporter robust z-score: 0.69

BTF3
- TNF reporter robust z-score: 0.1

BTF3
- TNF reporter robust z-score: 1.03
